Laboratory results taken from PMC6969169.
These are yes or no findings as the source states them, for the method shown. In cells and extracts the contact can be indirect. Some binding calls cover weakened binding; strength is not graded here.

Target: T1, Ncbp1 (mouse (endogenous in A2lox ESCs)) (UniProt Q3UYV9)
T1 sequence: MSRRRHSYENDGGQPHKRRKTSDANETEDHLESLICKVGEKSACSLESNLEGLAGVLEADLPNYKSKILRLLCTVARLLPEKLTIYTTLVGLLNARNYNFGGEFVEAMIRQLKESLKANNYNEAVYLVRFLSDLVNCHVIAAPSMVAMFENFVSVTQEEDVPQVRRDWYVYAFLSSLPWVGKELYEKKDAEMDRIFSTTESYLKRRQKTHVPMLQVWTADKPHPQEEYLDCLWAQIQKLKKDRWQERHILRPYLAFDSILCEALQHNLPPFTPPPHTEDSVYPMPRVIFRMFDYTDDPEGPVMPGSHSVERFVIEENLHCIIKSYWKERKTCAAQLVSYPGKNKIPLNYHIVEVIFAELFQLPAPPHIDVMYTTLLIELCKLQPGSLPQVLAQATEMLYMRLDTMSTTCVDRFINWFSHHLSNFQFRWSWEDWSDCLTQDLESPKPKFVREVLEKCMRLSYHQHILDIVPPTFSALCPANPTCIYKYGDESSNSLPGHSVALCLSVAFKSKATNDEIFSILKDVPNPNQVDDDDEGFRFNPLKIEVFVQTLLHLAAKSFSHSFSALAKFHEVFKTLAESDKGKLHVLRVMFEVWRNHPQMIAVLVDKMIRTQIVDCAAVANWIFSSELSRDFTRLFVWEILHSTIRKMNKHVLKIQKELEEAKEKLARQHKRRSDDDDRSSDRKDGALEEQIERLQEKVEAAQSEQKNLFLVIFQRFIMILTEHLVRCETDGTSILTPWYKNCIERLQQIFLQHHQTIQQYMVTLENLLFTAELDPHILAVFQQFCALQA
Assay: co-IP; clarified lysate of A2lox mouse ESCs (10 mM Tris-HCl pH 7.5, 150 mM NaCl, 0.5% NP-40) with Dynabeads protein G preloaded with protein-specific antibodies or non-immune rabbit IgG, 4 °C overnight; in some experiments lysates with 25 units/ml benzonase; immunoblotting

binding: binds
B1: Srrt (protein, UniProt Q99MR6 1-875)
chain: MGDSDDEYDRRRRDKFRRERSDYDRSRERDERRRGDDWNDREWDRGRERRSRGEYRDYDRNRRERFSPPRHELSPPQKRMRRDWDEHSSDPYHSGYDMPYAGGGGGPTYGPPQPWGHPDVHIMQHHVLPIQARLGSIAEIDLGVPPPIMKSFKEFLLSLDDSVDETEAVKRYNDYKLDFRRQQMQDFFLAHKDEEWFRSKYHPDEVGKRRQEARGALQNRLKVFLSLMESGWFDNLLLDIDKADAIVKMLDAAVIKMEGGTENDLRILEQEEEEEQAGKTGEASKKEEARAGPALGEGERKANDKDEKKEDGKQAENDSSNDDKTKKSEGDGDKEEKKEEAEKEAKKSKKRNRKQSGDDSFDEGSVSESESESEGGQAEEEKEEAEEALKEKEKPKEEEKEKPKDAAGLECKPRPLHKTCSLFMRNIAPNISRAEIISLCKRYPGFMRVALSEPQPERRFFRRGWVTFDRSVNIKEICWNLQNIRLRECELSPGVNRDLTRRVRNINGITQHKQIVRNDIKLAAKLIHTLDDRTQLWASEPGTPPVPTSLPSQNPILKNITDYLIEEVSAEEEELLGSSGGPPPEEPPKEGNPAEINVERDEKLIKVLDKLLLYLRIVHSLDYYNTCEYPNEDEMPNRCGIIHVRGPMPPNRISHGEVLEWQKTFEEKLTPLLSVRESLSEEEAQKMGRKDPEQEVEKFVTSNTQELGKDKWLCPLSGKKFKGPEFVRKHIFNKHAEKIEEVKKEVAFFNNFLTDAKRPALPEIKPAQPPGPAQILPPGLTPGLPYPHQTPQGLMPYGQPRPPILGYGAGAVRPAVPTGGPPYPHAPYGAGRGNYDAFRGQGGYPGKPRNRMVRGDPRAIVEYRDLDAPDDVDFF
